# Results are given in words; binding and its absence hold for the method and conditions named. Binding calls can cover weak binding; strength is not graded here. Tags and fused reporters may be left off the sequences shown.
# The chains behind the UniProt entries cited, without tags or fusion partners. Where a name states a change or a piece, a line headed by the entry shows the natural chain unless it says otherwise.
# UniProt Q257C6: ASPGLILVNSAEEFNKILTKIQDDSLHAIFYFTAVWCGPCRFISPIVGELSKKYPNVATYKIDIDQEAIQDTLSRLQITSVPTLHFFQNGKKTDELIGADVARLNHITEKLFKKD
# B1: recombinant human ATG4B, His-tagged (His-HsATG4B) (enzyme, UniProt Q9Y4P1 1-393)
# chain: MDAATLTYDTLRFAEFEDFPETSEPVWILGRKYSIFTEKDEILSDVASRLWFTYRKNFPAIGGTGPTSDTGWGCMLRCGQMIFAQALVCRHLGRDWRWTQRKRQPDSYFSVLNAFIDRKDSYYSIHQIAQMGVGEGKSIGQWYGPNTVAQVLKKLAVFDTWSSLAVHIAMDNTVVMEEIRRLCRTSVPCAGATAFPADSDRHCNGFPAGAEVTNRPSPWRPLVLLIPLRLGLTDINEAYVETLKHCFMMPQSLGVIGGKPNSAHYFIGYVGEELIYLDPHTTQPAVEPTDGCFIPDESFHCQHPPCRMSIAELDPSIAVGFFCKTEDDFNDWCQQVKKLSLLGGALPMFELVELQPSHLACPDVLNLSLDSSDVERLERFFDSEDEDFEILSL
# Biological target: recombinant pea thioredoxin o1 (PsTRXo1) (pea) (UniProt Q257C6)
# Experiment: far-Western, overlay or dot blot; PsTRXo1 (1.5 µg), HsATG4B (2.3 µg) and BSA (1.5 µg) spotted on membranes, blocked in TBST (25 mM Tris-HCl pH 7.5, 1% BSA, 0.1% Tween-20), overlaid with 0.2 µg PsTRXo1 or 0.1 µg HsATG4B in TBST for 2 h at room temperature; detected with anti-PsTRXo1 or anti-CrATG4B; both purified
binder,measurement,value
B1,binding,binds

# From publication PMC8698322
